At least one structure is not confirmed: it was looked up by name or label, or the drawing left a doubt.
How the values were obtained:
[1] = test system: cerebral ischemia-reperfusion injury; conditions: literature; cited from earlier work
[2] = test system: kidney transplant recipients; assay: Kidney transplant survival; format: in vivo, black 6 mouse donor to C3H mouse
Description: A kidney from a black 6 mouse was transplanted into a C3H mouse in a sample of ten test mice and ten control mice. This is a major mismatch. In the test group, donors were given a single injection of DEM (6mmol/kg) immediately prior to the harvest of the kidney. Recipient mice received a single dose prior to insertion of the kidney. No other agents were used. In the control group, donors and recipients were not given an injection of DEM.

CCOC(=O)/C=C\C(=O)OCC [DEM, diethylmaleate]
mortality following cerebral ischemia-reperfusion injury [1]: reduced mortality
mortality rate of recipients ([2]; DEM 6 mmol/kg vs control): slower mortality rate
recipients still alive when last control recipients died ([2]; DEM 6 mmol/kg, within 25 days, p<0.01): Six of the ten recipients

Source: US5994402A, “Anti-inflammatory and anti-pyretic method” (priority 1997, dated 1999)
